The conditions of series [1]: 1 mM EDTA + 4 mM BaCl2, HEPES pH 8.5, 25° C.
The conditions of series [2]: Tricine pH 8.5, 25° C.; for ΔH1 / ΔH2: EDTA/DPTA mixture, 99% CI in parentheses; for ΔH: real-time evaluation from data at inflection points, continuous 7.2 μL/min. The procedure: The pH of these solutions was adjusted to 8.5 with 1 M NaOH solution. For the single independent binding site and two independent binding sites experiments, Tricine (20 mM) was used as a buffer solution. For the competitive binding site experiment, HEPES (20 mM) was used as a buffer solution.
The titrations were performed on a NanoITC (TA Instruments, New Castle, Del.) with gold cells with a cell volume of 1 mL. ITC experiments were carried out at 25° C. and the stirring speed was 250 rpm. For the single independent binding experiment, ligand of 20 mM in 100 μL syringe and for the competitive binding site and two independent binding sites model, ligand of 10 mM in 250 μL syringe were used. The injection rate was varied 1.7-10 μL/min for the continuous injection mode under setting tab in ITCRun software. During the equilibration, mass transfer of ligand at the tip of the injection syringe reduces the integrated heat of the first injection. The first data point for the incremental injection mode and data for the initial 10 μL of injection for the continuous injection mode is excluded for data fitting with binding models due to reduced amount of the heat flow.
By changing the concentration of EDTA and DPTA in the mixture, the various binding stoichiometry of the receptor, n and m, were simulated. […] The number of injections for the incremental injection mode experiment is 40 with an injection volume of 6 μL. Injection rate for the continuous injection mode is 7.2 μL/min.
The fit for the continuous injection method was done after 0.05 mM of ligand was injected. […] The positive peaks of the binding isotherms in the raw data (top) represent the exothermic heat of binding.

The mark [3] stands for this setting: continuous injection 7.2 μL/min.
Where [4] appears, read: incremental, 40 injections of 6 μL.

Our source for the ΔH2, ΔH and ΔH1 values is US20160216259A1, “ISOTHERMAL TITRATION CALORIMETRY METHODS FOR EVALUATION OF THERMODYNAMIC BINDING PROPERTIES” (The Penn State Research Foundation, priority 2015, published 2016).

Where two headings read alike, the source gives them in different places. Marks after values point to notes of the source that are not given here.

Take `[Ba+2].[Cl-].[Cl-]` [BaCl2, barium chloride]: the ΔH2 (Ba^2+ and EDTA, obtained independently by incremental injection, input for the competitive model) is -3.482 kcal/mol. This compound displayed a ΔH (real-time evaluation from data at inflection point, continuous injection 1.7 μL/min, Tricine pH 8.5, 25° C.) of -5.055 kcal/mol.
As to `O.O.O.O.O=[N+]([O-])[O-].O=[N+]([O-])[O-].[Ca+2]` [Ca(NO3)2, Calcium nitrate tetrahydrate], the ΔH in series [1] (continuous injection 10 μL/min, 99% CI in parentheses) was −20.966 (−20.94, −20.99) kJ mol^−1; in series [1] (incremental, 20 injections of 10 μL, 99% CI in parentheses), −19.66 (−19.4, −19.9) kJ mol^−1; in series [1] (real-time evaluation from data at inflection point, continuous injection 10 μL/min), -4.938 kcal/mol; in series [2] (association of Ca^2+ and DPTA), −8.90^g kJ mol^−1; in series [2] (association of Ca^2+ and EDTA) it was −21.12^f kJ mol^−1. Further, the ΔH1 in series [2] (setting [3]) is −23.81 (−23.78, −23.83) kJ mol^−1; in series [2] (setting [4]), −23.01 (−22.82, −23.21) kJ mol^−1. For the same compound, the ΔH2 is recorded as −9.58 (−9.54, −9.62) kJ mol^−1 in series [2] (setting [3]) and −9.31 (−9.01, −9.40) kJ mol^−1 in series [2] (setting [4]).
